Reference: PubChem BioAssay AID1671190 (National Center for Advancing Translational Sciences (NCATS), 2021)
Values joined by “and” are separate entries in the source; they are usually repeats but may differ in a detail not shown here. Equal entries are not always repeated. About 6,100 (1.1%) of roughly 580,000 compounds were called active. Inconclusive means that the source gave no clear call. Such entries were picked first, then a sample of the others. Calls come from the whole dose curve; as a rule, active = well fitted inhibition curve with a large enough effect; inconclusive = small, poorly fitted or top-dose-only effect, or another doubt; inactive = no such curve, though single readings can be large or run the other way. A potency beside an inconclusive call is a rough fit, not a confirmed value.

Amino acid sequences for entries named in this document (tags omitted). A change or cut given only in a name is not applied to a line headed by its entry.
UniProt P18054: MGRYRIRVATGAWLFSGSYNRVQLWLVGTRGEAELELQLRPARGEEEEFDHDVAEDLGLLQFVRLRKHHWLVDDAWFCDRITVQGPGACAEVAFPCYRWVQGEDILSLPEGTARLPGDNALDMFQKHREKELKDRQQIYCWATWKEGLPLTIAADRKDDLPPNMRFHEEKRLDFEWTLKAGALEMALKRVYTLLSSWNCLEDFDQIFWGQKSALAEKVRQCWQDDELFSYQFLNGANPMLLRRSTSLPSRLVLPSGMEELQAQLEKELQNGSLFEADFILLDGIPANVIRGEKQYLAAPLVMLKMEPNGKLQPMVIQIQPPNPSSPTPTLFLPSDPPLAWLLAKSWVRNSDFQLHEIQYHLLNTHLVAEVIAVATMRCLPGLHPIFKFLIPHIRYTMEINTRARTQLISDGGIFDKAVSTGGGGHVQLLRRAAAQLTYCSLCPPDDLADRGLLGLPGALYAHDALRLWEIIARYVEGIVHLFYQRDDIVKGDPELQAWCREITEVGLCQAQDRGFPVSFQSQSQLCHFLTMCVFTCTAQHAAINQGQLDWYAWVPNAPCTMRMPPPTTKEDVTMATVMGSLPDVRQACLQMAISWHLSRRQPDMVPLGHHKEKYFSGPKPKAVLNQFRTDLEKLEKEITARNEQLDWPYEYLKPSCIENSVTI

Biological target: Polyunsaturated fatty acid lipoxygenase ALOX12 (Homo sapiens) (UniProt P18054)
Test: Primary qHTS assay for inhibitors of human arachidonate 12S-lipoxygenase (ALOX12): Round 2
Conditions: purified 12hLO, xylenol orange hydroperoxide absorbance; activity change, negative = inhibition: at 108 µM (top of the series) unless noted
Procedure, shortened: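 Purified human 12hLO at 150 nM in 25 mM Hepes, 0.01% Triton X-100, pH 7.0, preincubated 15 min at room temperature with compound. Reaction started with 40 uM arachidonic acid, 30 min at room temperature. Hydroperoxide measured by Fe-xylenol orange, 573/405 nm absorbance ratio.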
% is set by controls: 0 for no effect and ±100 for the full control effect; potency is the fitted concentration of half-maximal effect.

Row | Structure (SMILES) | Potency | activity change, negative = inhibition
1 | CN(C)c1ccc(/C=N/NC(=S)NCc2ccccc2)cc1 | inconclusive: 25.1 µM [inhibitor, full curve, poor fit] | 
2 | COc1cccc(N2C(=O)NC(=NC3CCCC3)C23CCN(Cc2cccnc2)C3)c1 (configuration not stated) |  | inactive: 7.74% [at 6.33 µM]
3 | NC(=NCc1ccccc1)NCc1ccc(F)cc1 |  | inactive: -47.7%
4 | Cc1cc(C)n(CC(O)COc2ccc(Cl)cc2)n1 (configuration not stated) |  | inactive: -9.4%
5 | COc1ccccc1CNC(=O)CCCN1C(=O)CCn2nc(-c3cn(C)c4ccccc34)cc21 | inconclusive: 50.1 µM [inhibitor, partial curve, poor fit] | 
6 | O=C1C(Cc2ccccc2)Nc2ncnc(N3CCOCC3)c2N1Cc1ccc(Cl)cc1 (configuration not stated) | inconclusive: 35.5 µM [inhibitor, partial curve, poor fit] and inconclusive: 56.2 µM [inhibitor, partial curve, poor fit] | 
7 | CC1CCCCN1C(=O)CSc1nnc(-c2ccccc2O)o1 (configuration not stated) | inconclusive: 4.47 µM [inhibitor, full curve, poor fit] | 
8 | COc1ccc(C(C)C)cc1S(=O)(=O)N1CCC(C(=O)N2CCN(C)CC2)CC1 | inconclusive: 39.8 µM [inhibitor, full curve, poor fit] | 
9 | C/C(=N\O)c1ccc(OCC(O)CNC(C)C)cc1 (configuration not stated) |  | inactive: -6.87%
10 | Cc1ccc(C)n1C1C(=O)N(Cc2ccc(C(F)(F)F)cc2)c2ccc(Cl)cc21 (configuration not stated) | active: 10 µM | 
11 | Cc1ccsc1C(=O)N1CCC2(CC1)NC(=O)N(c1ccc(F)cc1)N2 | active: 2.24 µM | 
12 | C#Cc1ccc([C@@H]2C=C(C(=O)O)O[C@H](OCC)[C@H]2CCCO)cc1 | inconclusive: 112 µM [inhibitor, partial curve, poor fit] | 
13 | CCN1C(=O)[C@H]2[C@@H](c3ccc(C(F)(F)F)cc3)N[C@]3(CCCN(CC4CCCCC4)C3=O)[C@H]2C1=O | inconclusive: 17.8 µM [inhibitor, partial curve] | 
14 | COc1ccc(NS(=O)(=O)c2cccc(C(=O)N/N=C/c3ccc4c(c3)OCCO4)c2)cc1 |  | inactive: -3.98%
15 | COC(=O)C1CCCCN1Cc1nc(N2CCCN(C(C)=O)CC2)c2ccccc2n1 (configuration not stated) | inconclusive: 50.1 µM [inhibitor, partial curve, poor fit] | 
16 | Cc1cc(NS(=O)(=O)c2ccc(NC(=S)NC(=O)c3ccccc3)cc2)no1 | active: 15.8 µM | 
17 | Fc1ccc(C(c2nnc(-c3ccccc3)o2)N2CCN(c3ccccc3)CC2)c(Cl)c1 (configuration not stated) |  | inactive: -13.6%
18 | COCCn1c(C)cc(/C=C2/SC(=O)N(CC(=O)N3CCCC3)C2=O)c1C | inconclusive: 56.2 µM [inhibitor, partial curve, poor fit] | 
19 | C=CCOc1ccccc1/C=c1\sc2nc(=O)c(C)nn2c1=O | inconclusive: 14.1 µM [inhibitor, full curve] | 
20 | CC(C)C(=O)Nc1c(C(=O)N2CCN(c3ccccc3F)CC2)oc2ccccc12 |  | inactive: 1.16%
21 | O=C(Nc1ccc(N2CCCC2)c(Cl)c1)c1ccccc1F |  | inactive: -1.47%

Row | Structure (SMILES) | Potency | activity change, negative = inhibition
22 | O=C(O)c1cccc2cc(-c3ccccc3)oc(=O)c12 |  | inactive: -39.7%
23 | Cc1nc(-n2[nH]c(C)c(CCC(C)C)c2=O)sc1C(=O)Nc1ccccc1 |  | inactive: 48.1%
24 | CC(C)(C)C(=O)COC(=O)c1ccccc1Cl | inconclusive: 35.5 µM [inhibitor, single point] | 
25 | O=C(Nc1ccccc1N1CCOCC1)c1cccc(NS(=O)(=O)c2ccc(F)c(F)c2)c1 | inconclusive: 50.1 µM [inhibitor, partial curve, poor fit] | 
26 | Cc1ccc(C(=O)NNC(=O)C2CCN(C(=O)OC(C)(C)C)CC2)cc1 | inconclusive: 10 µM [inhibitor, partial curve, poor fit] | 
27 | COCCNc1nc2nonc2nc1N(C)Cc1cccc2cnccc12 | inconclusive: 112 µM [inhibitor, single point] | 
28 | Cc1ccc(Sc2cc3ccccc3oc2=O)cc1 | inconclusive: 112 µM [inhibitor, single point] | 
29 | CCOC(=O)C(=NC1CCS(=O)(=O)C1)NNc1ccccc1Cl (configuration not stated) | active: 12.6 µM | 
30 | Cc1ccc(C)c(S(=O)(=O)N2CCCOC2CNC(=O)C(=O)NCc2ccco2)c1 (configuration not stated) |  | inactive: -4.3%
31 | CNC[C@@H]1Oc2c(NC(=O)Nc3ccccc3)cccc2C(=O)N([C@@H](C)CO)C[C@H]1C | inconclusive: 112 µM [inhibitor, single point] | 
32 | CCOc1ccc(N2CC(C(=O)Nc3nnc(Cc4ccc(OC)cc4)s3)CC2=O)cc1 (configuration not stated) | inconclusive: 0.251 µM [inhibitor, full curve, poor fit] | 
33 | COc1ccc(/C=N/n2c(=O)[nH]c3c([nH]c4ccc(Br)cc43)c2=O)cc1CN1CCOCC1 | inconclusive: 2.82 µM [inhibitor, full curve, poor fit] | 
34 | CCc1ccc(-c2cc(C(=O)N/N=C/c3ccccn3)[nH]n2)cc1 |  | inactive: 5.92%
35 | O=[N+]([O-])c1ccc(Sc2cccc3cccnc23)c([N+](=O)[O-])c1 | inconclusive: 50.1 µM [inhibitor, partial curve, poor fit] | 
36 | CCCNC(=O)C(C)OC(=O)c1cc(=O)[nH]c2ccccc12 (configuration not stated) |  | inactive: -59.8%
37 | Cc1nc(-c2cccc(S(=O)(=O)N3CCC(C(=O)NCc4ccccc4)CC3)c2)no1 | inconclusive: 141 µM [inhibitor, partial curve, poor fit] | 
38 | Cn1cccc1/C=C(\C#N)c1ccc(F)cc1 | inconclusive: 44.7 µM [inhibitor, partial curve, poor fit] | 
39 | O=C(CCSc1nc(Cl)nc2nc[nH]c12)NCc1cccc(Cl)c1 |  | inactive: -28.4%
40 | CCOC(=O)c1csc(N/N=C2\CCc3ccccc32)n1 | inconclusive: 39.8 µM [inhibitor, single point] | 
41 | CCN1C(=O)C2(C(C(=O)c3ccc(C)o3)=C(O)C(=O)N2CCCN(C)C)c2ccccc21 (configuration not stated) | inconclusive: 31.6 µM [inhibitor, single point] | 
42 | COc1ccc(-c2cc(C[C@H]3CNCC[C@H]3CC(=O)N3CCC(Cc4ccccc4)CC3)no2)cc1 | inconclusive: 56.2 µM [inhibitor, partial curve, poor fit] | 

12 compounds out of the list, ordered by length of the SMILES, rising.
Row | Structure (SMILES) | Potency | activity change, negative = inhibition
28 | Cc1ccc(Sc2cc3ccccc3oc2=O)cc1 | inconclusive: 112 µM [inhibitor, single point] | 
38 | Cn1cccc1/C=C(\C#N)c1ccc(F)cc1 | inconclusive: 44.7 µM [inhibitor, partial curve, poor fit] | 
24 | CC(C)(C)C(=O)COC(=O)c1ccccc1Cl | inconclusive: 35.5 µM [inhibitor, single point] | 
27 | COCCNc1nc2nonc2nc1N(C)Cc1cccc2cnccc12 | inconclusive: 112 µM [inhibitor, single point] | 
36 | CCCNC(=O)C(C)OC(=O)c1cc(=O)[nH]c2ccccc12 (configuration not stated) |  | inactive: -59.8%
39 | O=C(CCSc1nc(Cl)nc2nc[nH]c12)NCc1cccc(Cl)c1 |  | inactive: -28.4%
34 | CCc1ccc(-c2cc(C(=O)N/N=C/c3ccccn3)[nH]n2)cc1 |  | inactive: 5.92%
23 | Cc1nc(-n2[nH]c(C)c(CCC(C)C)c2=O)sc1C(=O)Nc1ccccc1 |  | inactive: 48.1%
32 | CCOc1ccc(N2CC(C(=O)Nc3nnc(Cc4ccc(OC)cc4)s3)CC2=O)cc1 (configuration not stated) | inconclusive: 0.251 µM [inhibitor, full curve, poor fit] | 
25 | O=C(Nc1ccccc1N1CCOCC1)c1cccc(NS(=O)(=O)c2ccc(F)c(F)c2)c1 | inconclusive: 50.1 µM [inhibitor, partial curve, poor fit] | 
41 | CCN1C(=O)C2(C(C(=O)c3ccc(C)o3)=C(O)C(=O)N2CCCN(C)C)c2ccccc21 (configuration not stated) | inconclusive: 31.6 µM [inhibitor, single point] | 
31 | CNC[C@@H]1Oc2c(NC(=O)Nc3ccccc3)cccc2C(=O)N([C@@H](C)CO)C[C@H]1C | inconclusive: 112 µM [inhibitor, single point] | 
